Results as given in article PMC10079535.
These are yes or no findings as the source states them, for the method shown. In cells and extracts the contact can be indirect. Some entries that bind do so weakly or less than the wild type.

Sequences of proteins named here, by UniProt entry; tags and fusion partners are left off.
UniProt P49841: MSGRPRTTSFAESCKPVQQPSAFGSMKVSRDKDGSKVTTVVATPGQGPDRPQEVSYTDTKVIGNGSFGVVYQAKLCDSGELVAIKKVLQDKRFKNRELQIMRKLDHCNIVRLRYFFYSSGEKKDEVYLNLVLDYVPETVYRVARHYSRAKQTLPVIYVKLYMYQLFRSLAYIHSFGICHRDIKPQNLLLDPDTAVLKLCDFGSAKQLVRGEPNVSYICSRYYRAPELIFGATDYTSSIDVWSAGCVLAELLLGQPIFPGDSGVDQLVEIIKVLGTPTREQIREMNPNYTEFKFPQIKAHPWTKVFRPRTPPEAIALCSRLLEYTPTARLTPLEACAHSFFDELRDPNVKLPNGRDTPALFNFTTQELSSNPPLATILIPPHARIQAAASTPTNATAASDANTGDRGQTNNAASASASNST
UniProt Q96SB4: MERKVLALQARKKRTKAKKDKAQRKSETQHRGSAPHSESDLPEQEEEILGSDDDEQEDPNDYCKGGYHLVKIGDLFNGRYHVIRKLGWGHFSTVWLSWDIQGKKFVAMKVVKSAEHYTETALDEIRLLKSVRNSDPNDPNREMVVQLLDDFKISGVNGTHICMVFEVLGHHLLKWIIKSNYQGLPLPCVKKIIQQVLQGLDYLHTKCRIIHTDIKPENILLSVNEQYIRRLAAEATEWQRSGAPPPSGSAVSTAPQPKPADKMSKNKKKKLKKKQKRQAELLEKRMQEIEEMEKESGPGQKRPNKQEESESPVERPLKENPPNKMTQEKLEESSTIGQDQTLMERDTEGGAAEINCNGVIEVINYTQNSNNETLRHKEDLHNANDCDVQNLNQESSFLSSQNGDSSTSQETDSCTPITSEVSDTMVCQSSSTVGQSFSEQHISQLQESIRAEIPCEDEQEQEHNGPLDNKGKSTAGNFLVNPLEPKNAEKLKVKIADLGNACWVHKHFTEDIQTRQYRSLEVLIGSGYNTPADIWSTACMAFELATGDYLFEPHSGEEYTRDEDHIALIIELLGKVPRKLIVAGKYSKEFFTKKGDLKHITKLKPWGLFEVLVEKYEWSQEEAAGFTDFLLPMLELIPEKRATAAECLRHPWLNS

Legend:
Flag-GSK3β (human) = Flag-GSK3β (human) (UniProt P49841); assay: co-IP; 293T cells transfected with HA-Vector, HA-SRPK1, Flag-Vector or Flag-GSK3β; IP lysis buffer 25 mM HEPES pH 7.4, 150 mM NaCl, 1% NP-40, 1 mM EDTA
[1] = biological target: Glycogen synthase kinase-3 (GSK3β), endogenous (human (endogenous in NCI-H1975)) (UniProt P49841); assay: co-IP; endogenous proteins of NCI-H1975 lysate; anti-SRPK1 or anti-GSK3β antibody cross-linked to protein A/G-agarose, overnight at 4 °C; IP lysis buffer 25 mM HEPES pH 7.4, 150 mM NaCl, 1% NP-40, 1 mM EDTA; also with cells treated with SPHINX31 (interaction not reduced)

| Substance | binding (Flag-GSK3β (human)) | binding [1] |
| --- | --- | --- |
| HA-SRPK1 (from UniProt Q96SB4 1-655) | binds |  |
| Serine-arginine protein kinase 1 (SRPK1), endogenous (from UniProt Q96SB4 1-655) |  | binds |
